No constants are given. Whether binding was seen depends on the method and setting. Some binding calls cover weakened binding; strength is not graded here. Sequences can lack the tags named with a protein.
What was measured:
[1] = target: REM1.3, yeast two-hybrid fusion (Arabidopsis thaliana) (UniProt O80837); assay: two-hybrid
[2] = target: T1, REMORIN-… RECEPTOR 1 (RIR1) cytoplasmic domain, yeast two-hybrid fusion (Arabidopsis thaliana) (UniProt C0LGG9); assay: two-hybrid
T1 sequence: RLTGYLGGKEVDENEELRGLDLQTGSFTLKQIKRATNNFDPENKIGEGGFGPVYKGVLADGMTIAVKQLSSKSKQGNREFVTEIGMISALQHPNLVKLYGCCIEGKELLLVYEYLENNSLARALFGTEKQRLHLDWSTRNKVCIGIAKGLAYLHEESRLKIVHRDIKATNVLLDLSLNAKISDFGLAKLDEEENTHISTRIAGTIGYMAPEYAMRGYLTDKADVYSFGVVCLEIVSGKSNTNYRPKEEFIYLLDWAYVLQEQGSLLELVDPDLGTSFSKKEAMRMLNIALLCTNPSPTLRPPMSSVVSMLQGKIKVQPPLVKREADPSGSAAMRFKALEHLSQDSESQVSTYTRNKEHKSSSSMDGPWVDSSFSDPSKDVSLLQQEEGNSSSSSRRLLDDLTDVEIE

B1: REM1.3, yeast two-hybrid fusion (protein, UniProt O80837 1-190)
chain: MAEEQKTSKVDVESPAVLAPAKEPTPAPVEVADEKIHNPPPVESKALAVVEKPIEEHTPKKASSGSADRDVILADLEKEKKTSFIKAWEESEKSKAENRAQKKISDVHAWENSKKAAVEAQLRKIEEKLEKKKAQYGEKMKNKVAAIHKLAEEKRAMVEAKKGEELLKAEEMGAKYRATGVVPKATCGCF
B1 was tested, and the binding [1] was “binds” and the binding [2] was “no binding”.
